# ± gives the standard deviation of the averaged measurements. Only a part is listed here, and it is no random draw. Small differences around the control level are noise.
# Amino acid sequences for entries named in this document (tags omitted). A change or cut given only in a name is not applied to a line headed by its entry.
# UniProt Q12959, whole entry, looked up: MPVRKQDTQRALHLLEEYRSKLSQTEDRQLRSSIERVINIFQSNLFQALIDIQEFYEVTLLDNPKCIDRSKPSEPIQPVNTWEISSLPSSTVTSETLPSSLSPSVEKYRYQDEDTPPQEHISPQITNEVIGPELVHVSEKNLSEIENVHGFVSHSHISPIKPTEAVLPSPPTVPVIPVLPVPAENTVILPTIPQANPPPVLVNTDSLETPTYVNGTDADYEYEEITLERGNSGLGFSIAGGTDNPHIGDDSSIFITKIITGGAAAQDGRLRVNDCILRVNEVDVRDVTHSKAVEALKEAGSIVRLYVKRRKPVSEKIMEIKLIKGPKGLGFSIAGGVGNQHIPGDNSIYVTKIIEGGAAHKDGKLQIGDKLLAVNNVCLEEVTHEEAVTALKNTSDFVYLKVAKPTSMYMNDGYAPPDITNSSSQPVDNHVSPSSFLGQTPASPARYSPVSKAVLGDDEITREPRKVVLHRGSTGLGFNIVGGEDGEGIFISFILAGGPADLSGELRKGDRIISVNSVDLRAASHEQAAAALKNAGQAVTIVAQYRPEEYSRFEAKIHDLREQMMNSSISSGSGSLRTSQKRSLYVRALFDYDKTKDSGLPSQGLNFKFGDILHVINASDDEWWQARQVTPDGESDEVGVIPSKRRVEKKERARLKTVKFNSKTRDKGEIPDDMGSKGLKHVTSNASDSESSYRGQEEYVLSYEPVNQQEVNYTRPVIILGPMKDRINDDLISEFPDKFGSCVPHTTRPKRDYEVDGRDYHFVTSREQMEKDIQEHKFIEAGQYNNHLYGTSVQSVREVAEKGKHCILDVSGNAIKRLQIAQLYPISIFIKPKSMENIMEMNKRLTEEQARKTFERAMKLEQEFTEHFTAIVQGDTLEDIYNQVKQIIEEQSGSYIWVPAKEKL
# UniProt Q08431: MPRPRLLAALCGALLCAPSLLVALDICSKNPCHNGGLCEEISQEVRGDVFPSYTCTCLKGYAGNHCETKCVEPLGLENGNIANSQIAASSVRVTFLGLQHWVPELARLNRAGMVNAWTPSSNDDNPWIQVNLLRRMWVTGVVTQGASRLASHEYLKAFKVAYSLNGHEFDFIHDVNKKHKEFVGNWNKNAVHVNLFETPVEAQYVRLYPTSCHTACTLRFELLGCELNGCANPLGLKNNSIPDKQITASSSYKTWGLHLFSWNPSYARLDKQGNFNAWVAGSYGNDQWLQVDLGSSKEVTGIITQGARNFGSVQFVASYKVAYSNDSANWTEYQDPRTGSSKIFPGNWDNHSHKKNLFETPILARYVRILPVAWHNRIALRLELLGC
# UniProt Q13838, whole entry: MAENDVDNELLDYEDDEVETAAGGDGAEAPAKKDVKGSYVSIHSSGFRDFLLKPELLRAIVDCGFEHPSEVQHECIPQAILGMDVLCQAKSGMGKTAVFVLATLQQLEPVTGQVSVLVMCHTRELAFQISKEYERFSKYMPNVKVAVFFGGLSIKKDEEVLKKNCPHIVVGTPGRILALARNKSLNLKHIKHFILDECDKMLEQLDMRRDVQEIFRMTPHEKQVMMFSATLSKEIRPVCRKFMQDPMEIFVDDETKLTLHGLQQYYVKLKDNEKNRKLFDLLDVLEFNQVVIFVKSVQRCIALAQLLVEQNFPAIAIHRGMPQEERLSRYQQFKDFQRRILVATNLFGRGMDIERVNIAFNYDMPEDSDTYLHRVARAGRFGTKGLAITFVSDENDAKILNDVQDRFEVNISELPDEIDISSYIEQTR
# UniProt Q12846: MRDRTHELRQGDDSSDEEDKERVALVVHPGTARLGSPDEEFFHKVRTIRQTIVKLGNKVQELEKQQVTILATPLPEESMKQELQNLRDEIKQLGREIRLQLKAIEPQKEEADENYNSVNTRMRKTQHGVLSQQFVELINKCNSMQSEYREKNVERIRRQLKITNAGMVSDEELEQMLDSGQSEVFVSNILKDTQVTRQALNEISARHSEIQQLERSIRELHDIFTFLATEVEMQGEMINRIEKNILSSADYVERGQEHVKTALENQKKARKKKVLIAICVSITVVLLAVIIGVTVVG
# UniProt Q02790: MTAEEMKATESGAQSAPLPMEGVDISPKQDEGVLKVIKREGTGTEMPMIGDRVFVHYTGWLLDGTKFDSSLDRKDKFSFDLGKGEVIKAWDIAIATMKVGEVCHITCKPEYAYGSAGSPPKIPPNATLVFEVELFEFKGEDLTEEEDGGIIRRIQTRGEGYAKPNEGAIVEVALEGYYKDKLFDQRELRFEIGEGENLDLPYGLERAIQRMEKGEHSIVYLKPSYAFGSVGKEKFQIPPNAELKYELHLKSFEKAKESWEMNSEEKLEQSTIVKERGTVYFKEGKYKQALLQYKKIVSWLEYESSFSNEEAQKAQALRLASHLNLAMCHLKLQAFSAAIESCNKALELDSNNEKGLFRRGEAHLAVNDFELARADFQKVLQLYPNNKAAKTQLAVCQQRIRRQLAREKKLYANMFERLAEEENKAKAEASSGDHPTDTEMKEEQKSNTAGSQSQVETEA
# UniProt Q05086: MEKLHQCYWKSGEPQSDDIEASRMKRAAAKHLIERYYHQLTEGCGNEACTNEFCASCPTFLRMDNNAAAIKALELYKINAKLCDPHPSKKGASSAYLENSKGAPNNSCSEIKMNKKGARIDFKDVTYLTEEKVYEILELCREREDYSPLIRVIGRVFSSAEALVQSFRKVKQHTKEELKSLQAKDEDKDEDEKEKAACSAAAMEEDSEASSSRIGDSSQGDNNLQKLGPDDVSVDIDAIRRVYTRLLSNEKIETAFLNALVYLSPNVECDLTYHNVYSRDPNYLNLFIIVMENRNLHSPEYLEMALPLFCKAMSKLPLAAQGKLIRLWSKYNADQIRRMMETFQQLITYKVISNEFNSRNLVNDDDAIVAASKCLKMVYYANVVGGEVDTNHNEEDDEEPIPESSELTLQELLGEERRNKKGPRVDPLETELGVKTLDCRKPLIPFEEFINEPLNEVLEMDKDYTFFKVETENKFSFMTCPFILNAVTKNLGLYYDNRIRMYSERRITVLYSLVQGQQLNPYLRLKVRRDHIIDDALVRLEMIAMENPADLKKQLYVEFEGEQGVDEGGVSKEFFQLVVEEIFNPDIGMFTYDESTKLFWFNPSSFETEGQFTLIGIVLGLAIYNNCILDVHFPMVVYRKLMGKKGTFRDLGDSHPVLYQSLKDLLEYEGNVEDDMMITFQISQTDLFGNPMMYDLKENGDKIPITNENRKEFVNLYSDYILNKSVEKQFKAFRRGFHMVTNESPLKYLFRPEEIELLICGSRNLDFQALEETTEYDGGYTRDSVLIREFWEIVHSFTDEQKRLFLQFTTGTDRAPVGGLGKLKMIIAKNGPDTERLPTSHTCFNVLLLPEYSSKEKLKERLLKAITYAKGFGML
# UniProt Q13105: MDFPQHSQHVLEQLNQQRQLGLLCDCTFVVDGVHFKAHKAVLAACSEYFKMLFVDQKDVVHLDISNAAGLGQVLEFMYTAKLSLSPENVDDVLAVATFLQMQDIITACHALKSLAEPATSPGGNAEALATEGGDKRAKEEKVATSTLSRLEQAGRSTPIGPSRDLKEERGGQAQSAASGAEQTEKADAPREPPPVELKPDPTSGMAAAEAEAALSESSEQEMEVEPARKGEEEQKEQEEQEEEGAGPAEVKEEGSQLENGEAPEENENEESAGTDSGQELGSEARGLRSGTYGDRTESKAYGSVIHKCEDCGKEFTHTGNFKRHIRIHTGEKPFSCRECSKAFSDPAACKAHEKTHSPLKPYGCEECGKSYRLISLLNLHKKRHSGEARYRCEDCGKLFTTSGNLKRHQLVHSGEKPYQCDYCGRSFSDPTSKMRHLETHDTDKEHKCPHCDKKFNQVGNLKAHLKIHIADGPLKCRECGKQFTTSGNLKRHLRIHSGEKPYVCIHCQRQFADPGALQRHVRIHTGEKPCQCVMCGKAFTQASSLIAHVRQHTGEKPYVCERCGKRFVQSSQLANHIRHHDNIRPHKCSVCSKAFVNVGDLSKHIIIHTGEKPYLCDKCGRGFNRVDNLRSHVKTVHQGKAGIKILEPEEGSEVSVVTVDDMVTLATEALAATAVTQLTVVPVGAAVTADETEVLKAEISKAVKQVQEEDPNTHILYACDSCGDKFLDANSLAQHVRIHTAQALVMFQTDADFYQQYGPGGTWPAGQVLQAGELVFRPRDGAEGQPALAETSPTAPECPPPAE
# UniProt Q02241: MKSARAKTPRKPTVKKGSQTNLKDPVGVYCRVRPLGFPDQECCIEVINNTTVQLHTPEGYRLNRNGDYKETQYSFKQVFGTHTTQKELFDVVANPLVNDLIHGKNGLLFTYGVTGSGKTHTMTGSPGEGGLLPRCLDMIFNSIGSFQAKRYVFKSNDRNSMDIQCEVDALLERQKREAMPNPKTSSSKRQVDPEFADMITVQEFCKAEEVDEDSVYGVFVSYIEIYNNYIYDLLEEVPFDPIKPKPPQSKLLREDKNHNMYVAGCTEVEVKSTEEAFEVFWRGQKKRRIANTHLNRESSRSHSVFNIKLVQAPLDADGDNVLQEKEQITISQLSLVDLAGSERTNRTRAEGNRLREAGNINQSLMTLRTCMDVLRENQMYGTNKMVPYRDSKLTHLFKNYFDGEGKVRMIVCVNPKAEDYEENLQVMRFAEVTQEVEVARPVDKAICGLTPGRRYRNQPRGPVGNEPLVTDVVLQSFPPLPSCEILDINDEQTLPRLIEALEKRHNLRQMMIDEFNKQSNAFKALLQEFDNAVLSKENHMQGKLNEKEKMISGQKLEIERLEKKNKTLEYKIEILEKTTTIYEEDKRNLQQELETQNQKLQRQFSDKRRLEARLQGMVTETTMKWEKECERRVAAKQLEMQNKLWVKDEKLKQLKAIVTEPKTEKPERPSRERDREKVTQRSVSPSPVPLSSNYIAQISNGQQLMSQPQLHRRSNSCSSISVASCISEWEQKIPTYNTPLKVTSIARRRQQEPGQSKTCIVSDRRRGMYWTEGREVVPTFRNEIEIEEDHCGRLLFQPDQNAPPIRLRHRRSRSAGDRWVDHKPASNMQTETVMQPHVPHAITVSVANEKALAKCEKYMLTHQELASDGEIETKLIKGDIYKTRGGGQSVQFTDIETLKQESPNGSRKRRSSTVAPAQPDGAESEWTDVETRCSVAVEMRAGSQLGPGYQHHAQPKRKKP
# UniProt Q13615: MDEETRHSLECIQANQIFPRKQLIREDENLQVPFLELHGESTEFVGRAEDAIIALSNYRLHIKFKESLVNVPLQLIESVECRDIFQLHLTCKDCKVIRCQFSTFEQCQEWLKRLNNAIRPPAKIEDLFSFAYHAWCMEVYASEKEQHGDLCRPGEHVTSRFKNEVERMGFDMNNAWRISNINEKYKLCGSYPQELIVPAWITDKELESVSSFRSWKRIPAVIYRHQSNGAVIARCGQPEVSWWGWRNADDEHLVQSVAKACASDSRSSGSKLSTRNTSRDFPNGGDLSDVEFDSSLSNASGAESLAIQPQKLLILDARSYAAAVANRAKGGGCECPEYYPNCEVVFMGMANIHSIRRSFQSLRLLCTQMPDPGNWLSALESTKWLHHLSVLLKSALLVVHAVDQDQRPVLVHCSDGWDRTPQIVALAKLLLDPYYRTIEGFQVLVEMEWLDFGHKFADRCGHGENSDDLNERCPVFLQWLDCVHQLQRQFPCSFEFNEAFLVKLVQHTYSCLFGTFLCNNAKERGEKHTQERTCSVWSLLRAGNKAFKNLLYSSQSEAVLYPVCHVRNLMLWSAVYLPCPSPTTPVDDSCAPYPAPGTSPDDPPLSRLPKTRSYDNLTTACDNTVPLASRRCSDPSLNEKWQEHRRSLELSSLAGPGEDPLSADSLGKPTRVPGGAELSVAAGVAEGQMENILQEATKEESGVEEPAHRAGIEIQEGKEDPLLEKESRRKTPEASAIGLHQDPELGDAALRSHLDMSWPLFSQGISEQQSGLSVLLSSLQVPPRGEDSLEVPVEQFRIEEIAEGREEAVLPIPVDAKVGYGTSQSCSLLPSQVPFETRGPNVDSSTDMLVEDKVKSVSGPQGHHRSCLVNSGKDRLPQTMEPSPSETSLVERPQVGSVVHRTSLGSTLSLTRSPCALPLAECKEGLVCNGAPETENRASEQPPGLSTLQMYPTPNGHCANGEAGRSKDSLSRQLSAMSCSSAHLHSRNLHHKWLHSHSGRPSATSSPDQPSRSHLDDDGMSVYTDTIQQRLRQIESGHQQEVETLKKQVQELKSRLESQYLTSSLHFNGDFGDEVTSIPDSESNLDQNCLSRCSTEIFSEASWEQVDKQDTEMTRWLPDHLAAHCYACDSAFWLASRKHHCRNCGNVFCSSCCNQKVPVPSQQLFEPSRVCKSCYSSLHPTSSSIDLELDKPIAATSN
# Compound: Nc1ncnc2c1ncn2[C@@H]1O[C@H](COP(=O)(O)OP(=O)(O)OP(=O)(O)O)[C@@H](O)[C@H]1O [adenosine triphosphate]
# Assay: NP40-soluble protein abundance relative to vehicle (solubility fold change) (ratio); higher = more soluble protein in presence of ATP
# In short: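 Jurkat crude lysate (Dounce-homogenised) was treated with eight concentrations from 0.1 to 10 mM for 10 min at room temperature, then 3 min at 37 °C. It was solubilised with 0.8% NP40 and benzonase (60 min, 4 °C) and ultracentrifuged, and the supernatant was TMT-labelled for LC-MS/MS. Intensities were vsn-normalised, and the value is the fold change against the NP40-processed vehicle per replicate, from three independent experiments.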
target,measurement,setting,value
UniProt Q12789 and related entries,NP40-soluble protein abundance,concentration: 0.1mM,1.04 ± 0.034
same,NP40-soluble protein abundance,concentration: 0.5mM,1.049 ± 0.0063
UniProt Q13564 and related entries,NP40-soluble protein abundance,concentration: 0.1mM,1.02 ± 0.054
same,NP40-soluble protein abundance,concentration: 0.5mM,1.04 ± 0.032
UniProt Q12959-3|Q12959-2|Q12959-4,NP40-soluble protein abundance,concentration: 0.1mM,1.03 ± 0.038
same,NP40-soluble protein abundance,concentration: 0.5mM,1.04 ± 0.035
MGAT2 (UniProt Q10469),NP40-soluble protein abundance,concentration: 0.1mM,1.05 ± 0.015
same,NP40-soluble protein abundance,concentration: 0.5mM,0.995 ± 0.045
MFGE8 (UniProt Q08431),NP40-soluble protein abundance,concentration: 0.1mM,0.996 ± 0.04
same,NP40-soluble protein abundance,concentration: 0.5mM,0.951 ± 0.047
UniProt Q13838 and related entries,NP40-soluble protein abundance,concentration: 0.1mM,1.05 ± 0.082
same,NP40-soluble protein abundance,concentration: 0.5mM,0.971 ± 0.073
STX4 (UniProt Q12846),NP40-soluble protein abundance,concentration: 0.1mM,1.01 ± 0.024
same,NP40-soluble protein abundance,concentration: 0.5mM,1.02 ± 0.041
UniProt Q13905 and related entries,NP40-soluble protein abundance,concentration: 0.1mM,1.02 ± 0.038
same,NP40-soluble protein abundance,concentration: 0.5mM,0.98 ± 0.017
NCBP1 (UniProt Q09161),NP40-soluble protein abundance,concentration: 0.1mM,1.09 ± 0.062
same,NP40-soluble protein abundance,concentration: 0.5mM,1.13 ± 0.079
FKBP4 (UniProt Q02790),NP40-soluble protein abundance,concentration: 0.1mM,1.02 ± 0.05
same,NP40-soluble protein abundance,concentration: 0.5mM,1.03 ± 0.042
UniProt Q05086 and related entries,NP40-soluble protein abundance,concentration: 0.1mM,1.01 ± 0.046
same,NP40-soluble protein abundance,concentration: 0.5mM,1 ± 0.047
UniProt Q13105 and related entries,NP40-soluble protein abundance,concentration: 0.1mM,1.03 ± 0.083
same,NP40-soluble protein abundance,concentration: 0.5mM,1.04 ± 0.11
UniProt Q05519 and related entries,NP40-soluble protein abundance,concentration: 0.1mM,1.19 ± 0.08
same,NP40-soluble protein abundance,concentration: 0.5mM,1.53 ± 0.13
MGAT5 (UniProt Q09328),NP40-soluble protein abundance,concentration: 0.1mM,1 ± 0.067
same,NP40-soluble protein abundance,concentration: 0.5mM,0.954 ± 0.089
CUL1 (UniProt Q13616),NP40-soluble protein abundance,concentration: 0.1mM,1.01 ± 0.076
same,NP40-soluble protein abundance,concentration: 0.5mM,1.02 ± 0.033
UniProt Q02241 and related entries,NP40-soluble protein abundance,concentration: 0.1mM,1.07 ± 0.022
same,NP40-soluble protein abundance,concentration: 0.5mM,1.14 ± 0.038
UniProt Q13615 and related entries,NP40-soluble protein abundance,concentration: 0.1mM,1.02 ± 0.056
same,NP40-soluble protein abundance,concentration: 0.5mM,1.01 ± 0.024
UniProt Q01196 and related entries,NP40-soluble protein abundance,concentration: 0.1mM,1.01 ± 0.029
same,NP40-soluble protein abundance,concentration: 0.5mM,1.06 ± 0.04
same,NP40-soluble protein abundance,concentration: 1mM,1.07 ± 0.026
same,NP40-soluble protein abundance,concentration: 2mM,1.08 ± 0.024
same,NP40-soluble protein abundance,concentration: 4mM,1.11 ± 0.016
same,NP40-soluble protein abundance,concentration: 6mM,1.17 ± 0.034
same,NP40-soluble protein abundance,concentration: 8mM,1.15 ± 0.028
same,NP40-soluble protein abundance,concentration: 10mM,1.21 ± 0.034
CEBPZ (UniProt Q03701),NP40-soluble protein abundance,concentration: 0.1mM,0.986 ± 0.046
same,NP40-soluble protein abundance,concentration: 0.5mM,0.983 ± 0.029
SOX4 (UniProt Q06945),NP40-soluble protein abundance,concentration: 0.1mM,0.947 ± 0.079
same,NP40-soluble protein abundance,concentration: 0.5mM,0.952 ± 0.046

# Laid out differently: results already given.
target	measurement	setting	value
NCBP1 (UniProt Q09161)	NP40-soluble protein abundance	concentration: 0.1mM	1.09 ± 0.062
same	NP40-soluble protein abundance	concentration: 0.5mM	1.13 ± 0.079
FKBP4 (UniProt Q02790)	NP40-soluble protein abundance	concentration: 0.1mM	1.02 ± 0.05
same	NP40-soluble protein abundance	concentration: 0.5mM	1.03 ± 0.042
UniProt Q05086 and related entries	NP40-soluble protein abundance	concentration: 0.1mM	1.01 ± 0.046
same	NP40-soluble protein abundance	concentration: 0.5mM	1 ± 0.047
UniProt Q13105 and related entries	NP40-soluble protein abundance	concentration: 0.1mM	1.03 ± 0.083
same	NP40-soluble protein abundance	concentration: 0.5mM	1.04 ± 0.11
UniProt Q05519 and related entries	NP40-soluble protein abundance	concentration: 0.1mM	1.19 ± 0.08
same	NP40-soluble protein abundance	concentration: 0.5mM	1.53 ± 0.13
MGAT5 (UniProt Q09328)	NP40-soluble protein abundance	concentration: 0.1mM	1 ± 0.067
same	NP40-soluble protein abundance	concentration: 0.5mM	0.954 ± 0.089
CUL1 (UniProt Q13616)	NP40-soluble protein abundance	concentration: 0.1mM	1.01 ± 0.076
same	NP40-soluble protein abundance	concentration: 0.5mM	1.02 ± 0.033

# — the supplement of paper PMC6411743
